Reference: PubChem BioAssay AID1259405 (NCATS, 2018)
Screen: 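Silenced genes that increase secreted GFP made by CHO cells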 (primary screen). System: Chinese hamster CHO-K1 ovary cells with stable secreted eGFP expression. Reagent: single siRNA against mouse genes, 0.8 pmol siRNA per well (2 µl of 400 nM stock). Duration: 3 days. Read-out: 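Per-well intracellular GFP measured by laser scanning cytometry, plus viability from ATP luminescence, each relative to plate median of non-targeting control wells, in %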. Direction: GFP, % of control: higher = more GFP per well, higher productivity. Rule for the call: 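Called active when intracellular GFP, relative to negative control, is at or above 120%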.
The deposit covers about 50,000 reagents; shown is a random part of them. About 4,000 of them (8%) were called active. 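Mouse siRNA library applied to hamster cells; one well for each siRNA.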 Further read-outs or replicates are left out here.

GFP, % of control, by gene and reagent
Pnpla3: SID363570106 90.2 inactive; SID363576442 58.9 inactive; SID363579610 36.3 inactive
Carm1: SID363570402 156 active; SID363579202 113 inactive; SID363583074 133 active
Tbc1d4: SID363545232 83.2 inactive; SID363548745 59.3 inactive; SID363562551 64.1 inactive
Trnau1ap: SID363553894 62.1 inactive; SID363561851 95.6 inactive; SID363565589 68.9 inactive
Msantd3: SID363552225 68.8 inactive; SID363585361 95 inactive; SID363585712 108 inactive
Atp5mf: SID363546715 78.8 inactive; SID363548471 56.9 inactive; SID363560649 48.2 inactive
Fbxl7: SID363539991 116 inactive; SID363561292 119 inactive; SID363564328 118 inactive
Dll3: SID363544216 140 active; SID363550544 71.6 inactive; SID363557093 87.8 inactive
Impdh1: SID363575165 107 inactive; SID363580797 139 active; SID363582909 94.4 inactive
Yaf2: SID363556792 96 inactive; SID363563696 107 inactive; SID363587242 85.2 inactive
Itga3: SID363555261 85.2 inactive; SID363563922 93.2 inactive; SID363587468 98.4 inactive
Cmtm7: SID363550159 107 inactive; SID363564668 87.9 inactive; SID363588213 102 inactive
Mov10: SID363569677 98.1 inactive; SID363576717 69.2 inactive; SID363578125 31.9 inactive
Slfn8: SID363555092 93.7 inactive; SID363568539 53.9 inactive; SID363586598 64.6 inactive
D930048N14Rik: SID363539567 63.1 inactive; SID363560868 124 active; SID363564958 97 inactive
Esrp2: SID363553995 69 inactive; SID363561952 88.7 inactive; SID363565690 41.2 inactive
Dlc1: SID363542703 76.6 inactive; SID363545342 35.3 inactive; SID363546220 38.4 inactive; SID363547976 86.7 inactive; SID363548855 96.7 inactive; SID363562661 63.2 inactive
Tusc3: SID363545312 48.6 inactive; SID363548825 61.3 inactive; SID363562631 34.5 inactive

A stretch from the list above, for reference:
GFP, % of control, by gene and reagent
Trnau1ap: SID363553894 62.1 inactive; SID363561851 95.6 inactive; SID363565589 68.9 inactive
Msantd3: SID363552225 68.8 inactive; SID363585361 95 inactive; SID363585712 108 inactive
Atp5mf: SID363546715 78.8 inactive

More entries follow:
GFP, % of control, by gene and reagent
Cfp: SID363554579 67.2 inactive; SID363568026 80.7 inactive; SID363586085 108 inactive
Pabir2: SID363542588 47.7 inactive; SID363552079 75.5 inactive; SID363559684 92.5 inactive
Snrpd3: SID363569037 138 active; SID363583469 49.9 inactive
Fam3a: SID363543387 70.2 inactive; SID363552880 55.1 inactive; SID363558728 89.7 inactive
Gfral: SID363540075 50 inactive; SID363561376 75.3 inactive; SID363564412 38.7 inactive
Cry2: SID363573115 91.6 inactive; SID363577691 66.9 inactive; SID363581211 65 inactive
Bcl7b: SID363546875 55.2 inactive; SID363549687 30.1 inactive; SID363587741 112 inactive
Mcoln3: SID363574647 79.8 inactive; SID363575703 89.2 inactive; SID363580279 75.7 inactive
Cwc15: SID363540607 52.7 inactive; SID363543058 70.9 inactive; SID363552551 62.3 inactive
Tmem220: SID363542662 124 active; SID363546179 35.9 inactive; SID363547935 67.5 inactive
Mbd4: SID363562122 65.9 inactive; SID363567260 54.8 inactive; SID363584617 154 active
Clec18a: SID363562105 54.5 inactive; SID363567243 65.2 inactive; SID363584600 63.8 inactive
Slc2a4: SID363574910 101 inactive; SID363575966 78.8 inactive; SID363580542 113 inactive
Rsu1: SID363541696 97.9 inactive; SID363553288 64.4 inactive; SID363566612 47.1 inactive
Nrros: SID363544252 67 inactive; SID363550580 108 inactive; SID363557129 54.9 inactive
Tm6sf2: SID363556327 39 inactive; SID363586777 95.3 inactive; SID363588885 112 inactive
Klra6: SID363540317 69.1 inactive; SID363542069 99 inactive; SID363566985 112 inactive
